The other results are listed elsewhere or left out.

The chains behind the UniProt entries cited, without tags or fusion partners.
UniProt Q0JBA9, entry or part of it: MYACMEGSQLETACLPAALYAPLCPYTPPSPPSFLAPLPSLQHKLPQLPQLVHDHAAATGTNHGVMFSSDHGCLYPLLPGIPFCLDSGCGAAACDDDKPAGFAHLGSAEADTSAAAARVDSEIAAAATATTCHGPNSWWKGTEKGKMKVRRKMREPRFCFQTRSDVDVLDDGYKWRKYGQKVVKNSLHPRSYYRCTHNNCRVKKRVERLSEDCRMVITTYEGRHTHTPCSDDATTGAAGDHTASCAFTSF

For this experiment, the target named is OsWRKY34 (Oryza sativa, UniProt Q0JBA9 1-250). The experiment can be described thus: protein-binding microarray (RPBM); PBS, 2% BSA, 51.3 ng/ul salmon testes DNA, 50 uM zinc acetate, 200 nM TF, 25 C, 1 h; high values mean tight binding. Particulars: protein: recombinant; tags: N-terminal polyhistidine and DsRed monomer fusion (pET32a); label: CyDye5-dUTP incorporated in the synthesized complementary strand; 3' TTTTT single-stranded linker to array surface; dsDNA, one strand shown. The method in brief:
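Using Ni–NTA, transcription factors fused N-terminally to polyhistidine and DsRed were purified after expression in E. coli BL21-CodonPlus. These were incubated at 200 nM with a blocked, double-stranded custom Agilent array for 1 h at 25 °C in a buffer containing 50 µM zinc acetate, and the array was washed. The binding signal is per-feature fluorescence intensity (arbitrary units) on an Axon 4000B scanner.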
For the sequence “AGCTATTCAATGCTCCTTTTGTTGAGTACTTGCCGTCTCACGGAGTCACCTAGTGCAG”, the binding signal is 9370 fluorescence intensity (a.u.).
For “GAGGTGTCTCACTGTCTCACTGTTGTTTGTCTTCCTCCTTCGGAGTCACCTAGTGCAG”, the binding signal was 11400 fluorescence intensity (a.u.).
Regarding “CTATCCAGATTAAATGGGCCTCCAAAATACCAAAGGCCCACGGAGTCACCTAGTGCAG”, the binding signal was 8390 fluorescence intensity (a.u.).
For the sequence “TCGCACACCGTCAACAACCCAACCCCAACTACCCCAAAATCGGAGTCACCTAGTGCAG”, the binding signal is 8500 fluorescence intensity (a.u.).
The figure for “CTCATGGTCTCATCTTTTCGTCTATCATTATCTTTATCAGCGGAGTCACCTAGTGCAG” is 11100 fluorescence intensity (a.u.).
The figure for “TAATTTGGTGCATGCTTGGATTTGGGGATTTCTTTCTTATCGGAGTCACCTAGTGCAG” is 13400 fluorescence intensity (a.u.); for “CTCCTGCGCCGTCGTTTCCCTCTTCCATCCTTCGCTCGCTCGGAGTCACCTAGTGCAG” it is 9790 fluorescence intensity (a.u.).
Turning to “CAGCCTGTACACCAATACGTCCACGCACACAAGTCGCTGCCGGAGTCACCTAGTGCAG”, the binding signal is 8090 fluorescence intensity (a.u.).
With “ATGTTTGACCATTCGTCTTATTCAAAAATTTTATGCAAATCGGAGTCACCTAGTGCAG”, the binding signal is 10200 fluorescence intensity (a.u.).
The figure for “GATTGGGCAAGCCGGCCGGTGGTGGGGAGGTCGTTGCCGGCGGAGTCACCTAGTGCAG” is 11100 fluorescence intensity (a.u.); for “CCCGGAGCTCCGCGCCTAGACTGCCAGCTCGCCACCTCGTCGGAGTCACCTAGTGCAG” it is 8550 fluorescence intensity (a.u.).
The figure for “TTGACCACCAAGCTCCTGCTTCTTGCAATCTTGATCGATACGGAGTCACCTAGTGCAG” is 9170 fluorescence intensity (a.u.).
The figure for “GCACCGATACAGCCTTCACCCGCACCTCGCTTCCTTGGATCGGAGTCACCTAGTGCAG” is 8670 fluorescence intensity (a.u.).
“CTATTGATTTCTGCTGCTACTTTTCTATACTGTATTTTGTCGGAGTCACCTAGTGCAG”: the binding signal is 8410 fluorescence intensity (a.u.).
For “TGCTTCTCGGGGTTTGGTGGTGTTCTAGCAGGCAGTTCGTCGGAGTCACCTAGTGCAG”, the binding signal is 10100 fluorescence intensity (a.u.).
The figure for “ACGTCATTATTTTAGGTCTTTAATCCCTTGGGACTTTGTACGGAGTCACCTAGTGCAG” is 8310 fluorescence intensity (a.u.).
The figure for “CCACTGCTTCCAGAAGCGAGCGAGCTCTCCTTTCCTTTCTCGGAGTCACCTAGTGCAG” is 8890 fluorescence intensity (a.u.).
With “CCCTTTTTCTGCCCGGAATCGCGCTGCGTCGTACCCCGACCGGAGTCACCTAGTGCAG”, the binding signal was 10000 fluorescence intensity (a.u.).
As for “AGCAGCCAAACTCCGTGCATTTCCCTTTCAAATGACCTCCCGGAGTCACCTAGTGCAG”, the figure is 8180 fluorescence intensity (a.u.); as for “GCTATTCTCCGTTTATTTCCTGCCAAAGCTCTATCCATTTCGGAGTCACCTAGTGCAG”, 10100 fluorescence intensity (a.u.); as for “AATCACTTTCTACTGCTTATTGGTTTCTGCACGTTTCTTTCGGAGTCACCTAGTGCAG”, 14300 fluorescence intensity (a.u.).
With “CTCTACTCATCTTCTCTGCCAGCTGCTACTACACCAACCACGGAGTCACCTAGTGCAG”, the binding signal was 8840 fluorescence intensity (a.u.).
On to “CGTCGCCTCCCTCGCAGGCGCCCTCCTTGCCATCCGCCGACGGAGTCACCTAGTGCAG”, for which the binding signal was 8470 fluorescence intensity (a.u.).
Regarding “AACCACCGCTCAGCCTCGACGTCGAGATCCATAATCCACACGGAGTCACCTAGTGCAG”, the binding signal is 8040 fluorescence intensity (a.u.).
As for “TTTTGCAAAATTTAAGATATGCCATCCTGACCCACATGTTCGGAGTCACCTAGTGCAG”, the figure is 8300 fluorescence intensity (a.u.); as for “ATCCCATCTCGTTTGTTCTTCACTCTGTGTATTATGCATCCGGAGTCACCTAGTGCAG”, 9320 fluorescence intensity (a.u.).
As for “CACATCACCACTTCACTTGGCCCTAATACTCCTTTTTTAGCGGAGTCACCTAGTGCAG”, the figure is 8450 fluorescence intensity (a.u.); as for “ACTCGCATCTCCAATTCGGTCCGAATTTTTCCAAATTCCACGGAGTCACCTAGTGCAG”, 8680 fluorescence intensity (a.u.); as for “TCAATTGTCGCGAGTCTTCTCCTTTTTTTTTTCGTTTTTTCGGAGTCACCTAGTGCAG”, 11900 fluorescence intensity (a.u.).
The figure for “GCAAGCTCCAGATCTGACGGCATCATCACCACTGCTTCTCCGGAGTCACCTAGTGCAG” is 9770 fluorescence intensity (a.u.); for “ATCCCACTGTTTAGTTCGTTTAGTCTGTCACATATGATCCCGGAGTCACCTAGTGCAG” it is 8050 fluorescence intensity (a.u.); for “TGGCATCATCGACCATACACTTTTGTCAATCCGTTCAGCTCGGAGTCACCTAGTGCAG” it is 8910 fluorescence intensity (a.u.).
With “GCCACTCTGGCGCCCCAAAAAGGATTATTTCTGGGATAAGCGGAGTCACCTAGTGCAG”, the binding signal is 12000 fluorescence intensity (a.u.).
As for “GGACTGGGGAAGACGACACGACATGGGCTGGGCTGGGCTGCGGAGTCACCTAGTGCAG”, the figure is 9570 fluorescence intensity (a.u.).
As for “CCGTCCCGTCTCCTCGCCCGCCGCCCTCGACTCCCGTCTCCGGAGTCACCTAGTGCAG”, the figure is 8660 fluorescence intensity (a.u.); as for “TTACTGACACTGAAAGTTTCTATTATTTCACAATTCCTATCGGAGTCACCTAGTGCAG”, 8100 fluorescence intensity (a.u.).
The figure for “ATCGCTCTAAAAATATTTGTGCGTTGACTAGAAACCATGTCGGAGTCACCTAGTGCAG” is 13700 fluorescence intensity (a.u.); for “CTCGCCGTTGCAGCCATCTCACTGCAGTGTACCCTGCAACCGGAGTCACCTAGTGCAG” it is 8050 fluorescence intensity (a.u.); for “GTTTCAGGTTATAAGATATTTTGACTTTGTTTAAAGTCAACGGAGTCACCTAGTGCAG” it is 8360 fluorescence intensity (a.u.).
As to “CTCTCCTCCACTCCGCTCCCGTCGCCGCCACATCGCCATGCGGAGTCACCTAGTGCAG”, the binding signal was 8770 fluorescence intensity (a.u.).
The figure for “GCCTCGCCTCCGCGCACCTGGCCTCCGTAGATCCAAACGTCGGAGTCACCTAGTGCAG” is 9480 fluorescence intensity (a.u.).
As for “TGGTGATTTGGGTGTTTCTTTGTTCGGAATTGCAGGGAGGCGGAGTCACCTAGTGCAG”, the figure is 9420 fluorescence intensity (a.u.).

Source of the values: publication PMC7819943, “Rice protein-binding microarrays: a tool to detect cis-acting elements near promoter regions in rice”.
